# According to article doi:10.1101/2024.07.12.603302:
# Amino acid sequences for entries named in this document (tags omitted). A change or cut given only in a name is not applied to a line headed by its entry.
# UniProt P62136: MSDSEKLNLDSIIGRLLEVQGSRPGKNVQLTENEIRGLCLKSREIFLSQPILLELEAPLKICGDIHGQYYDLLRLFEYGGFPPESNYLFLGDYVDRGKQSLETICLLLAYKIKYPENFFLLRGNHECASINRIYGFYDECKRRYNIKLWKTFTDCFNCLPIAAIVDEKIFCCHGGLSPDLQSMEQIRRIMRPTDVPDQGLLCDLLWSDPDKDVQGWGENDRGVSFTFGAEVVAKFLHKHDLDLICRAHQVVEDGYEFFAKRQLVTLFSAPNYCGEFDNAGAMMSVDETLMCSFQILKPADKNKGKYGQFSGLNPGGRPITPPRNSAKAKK
# UniProt P46013: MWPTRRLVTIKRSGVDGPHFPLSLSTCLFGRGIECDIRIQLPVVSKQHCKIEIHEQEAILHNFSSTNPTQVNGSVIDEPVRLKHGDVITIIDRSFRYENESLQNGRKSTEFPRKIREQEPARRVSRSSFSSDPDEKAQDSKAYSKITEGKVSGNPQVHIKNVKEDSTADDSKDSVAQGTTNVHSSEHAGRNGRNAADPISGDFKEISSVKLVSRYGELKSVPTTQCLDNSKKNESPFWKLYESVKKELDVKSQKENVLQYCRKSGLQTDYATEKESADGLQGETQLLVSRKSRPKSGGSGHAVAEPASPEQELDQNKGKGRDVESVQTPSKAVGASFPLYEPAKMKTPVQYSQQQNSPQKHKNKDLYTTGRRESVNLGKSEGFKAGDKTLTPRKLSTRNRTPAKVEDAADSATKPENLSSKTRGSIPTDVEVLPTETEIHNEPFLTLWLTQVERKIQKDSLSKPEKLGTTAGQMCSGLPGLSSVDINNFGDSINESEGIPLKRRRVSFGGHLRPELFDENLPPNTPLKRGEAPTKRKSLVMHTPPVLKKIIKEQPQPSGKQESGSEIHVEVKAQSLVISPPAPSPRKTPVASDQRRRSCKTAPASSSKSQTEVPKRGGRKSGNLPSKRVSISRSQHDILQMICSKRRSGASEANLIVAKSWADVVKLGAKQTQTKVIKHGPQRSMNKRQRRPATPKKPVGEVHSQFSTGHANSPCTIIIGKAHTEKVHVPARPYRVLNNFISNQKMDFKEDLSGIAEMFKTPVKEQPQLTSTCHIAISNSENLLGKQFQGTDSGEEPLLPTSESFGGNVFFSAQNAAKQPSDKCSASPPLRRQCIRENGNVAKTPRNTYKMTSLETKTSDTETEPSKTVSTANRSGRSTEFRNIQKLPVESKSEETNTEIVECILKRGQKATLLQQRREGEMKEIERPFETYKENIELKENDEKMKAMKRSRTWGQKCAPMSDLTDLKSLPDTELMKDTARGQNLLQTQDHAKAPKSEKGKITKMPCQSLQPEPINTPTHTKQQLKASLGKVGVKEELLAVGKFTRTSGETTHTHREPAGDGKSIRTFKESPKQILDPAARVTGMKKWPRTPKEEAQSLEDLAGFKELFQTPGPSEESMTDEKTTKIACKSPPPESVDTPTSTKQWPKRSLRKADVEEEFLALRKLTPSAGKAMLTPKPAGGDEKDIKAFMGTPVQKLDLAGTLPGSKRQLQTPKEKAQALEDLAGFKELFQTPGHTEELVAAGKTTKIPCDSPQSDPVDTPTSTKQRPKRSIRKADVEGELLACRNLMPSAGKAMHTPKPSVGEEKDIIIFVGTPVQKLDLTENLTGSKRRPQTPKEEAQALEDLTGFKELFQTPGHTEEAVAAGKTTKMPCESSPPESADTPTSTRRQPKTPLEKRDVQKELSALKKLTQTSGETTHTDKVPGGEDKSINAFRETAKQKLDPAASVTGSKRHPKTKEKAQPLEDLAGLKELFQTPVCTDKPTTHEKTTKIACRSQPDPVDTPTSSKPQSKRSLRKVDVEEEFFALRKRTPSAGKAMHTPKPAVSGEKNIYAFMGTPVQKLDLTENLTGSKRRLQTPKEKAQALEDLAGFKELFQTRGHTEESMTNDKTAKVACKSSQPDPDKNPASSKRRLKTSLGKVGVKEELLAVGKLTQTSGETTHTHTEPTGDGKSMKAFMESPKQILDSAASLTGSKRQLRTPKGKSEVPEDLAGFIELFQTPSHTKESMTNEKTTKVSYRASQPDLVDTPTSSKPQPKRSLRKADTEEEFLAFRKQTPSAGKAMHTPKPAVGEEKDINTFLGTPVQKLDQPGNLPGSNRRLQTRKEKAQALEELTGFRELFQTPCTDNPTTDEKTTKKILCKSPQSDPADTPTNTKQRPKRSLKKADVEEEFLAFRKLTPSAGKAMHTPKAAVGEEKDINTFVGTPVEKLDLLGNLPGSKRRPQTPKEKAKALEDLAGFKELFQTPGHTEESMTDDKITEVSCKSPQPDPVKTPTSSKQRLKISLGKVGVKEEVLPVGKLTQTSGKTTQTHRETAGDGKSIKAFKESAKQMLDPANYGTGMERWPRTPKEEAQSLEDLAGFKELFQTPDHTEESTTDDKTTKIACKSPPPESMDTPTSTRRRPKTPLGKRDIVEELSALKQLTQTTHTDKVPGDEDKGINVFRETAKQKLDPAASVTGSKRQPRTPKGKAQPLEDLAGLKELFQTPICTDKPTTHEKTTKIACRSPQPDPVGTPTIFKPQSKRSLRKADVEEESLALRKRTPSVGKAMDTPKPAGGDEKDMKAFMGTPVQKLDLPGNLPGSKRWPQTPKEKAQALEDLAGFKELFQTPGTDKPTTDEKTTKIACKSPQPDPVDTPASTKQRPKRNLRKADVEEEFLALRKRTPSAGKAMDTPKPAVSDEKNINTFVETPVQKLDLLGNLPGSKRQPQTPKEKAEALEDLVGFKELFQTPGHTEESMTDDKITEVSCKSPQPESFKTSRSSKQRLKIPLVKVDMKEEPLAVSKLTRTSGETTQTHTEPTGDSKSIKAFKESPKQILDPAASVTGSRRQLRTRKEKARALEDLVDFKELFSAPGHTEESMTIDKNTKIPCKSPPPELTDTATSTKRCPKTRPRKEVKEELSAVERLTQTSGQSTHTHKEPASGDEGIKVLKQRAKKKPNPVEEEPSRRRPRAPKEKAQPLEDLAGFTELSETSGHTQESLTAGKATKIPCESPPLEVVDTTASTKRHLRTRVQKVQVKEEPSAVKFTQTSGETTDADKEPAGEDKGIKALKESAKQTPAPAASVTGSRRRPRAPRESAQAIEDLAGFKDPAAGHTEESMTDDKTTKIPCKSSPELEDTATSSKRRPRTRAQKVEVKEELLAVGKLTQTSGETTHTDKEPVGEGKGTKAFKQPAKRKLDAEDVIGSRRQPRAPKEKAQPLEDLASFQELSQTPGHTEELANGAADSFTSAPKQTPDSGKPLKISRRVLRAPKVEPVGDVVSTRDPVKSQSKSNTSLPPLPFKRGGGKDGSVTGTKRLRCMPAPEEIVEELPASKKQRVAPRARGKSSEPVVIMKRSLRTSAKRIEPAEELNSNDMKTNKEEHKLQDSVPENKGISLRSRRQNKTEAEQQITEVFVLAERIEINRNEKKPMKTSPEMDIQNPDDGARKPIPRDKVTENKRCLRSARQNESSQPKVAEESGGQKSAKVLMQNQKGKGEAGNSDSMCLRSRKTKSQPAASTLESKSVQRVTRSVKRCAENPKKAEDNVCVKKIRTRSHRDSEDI
# UniProt Q12972: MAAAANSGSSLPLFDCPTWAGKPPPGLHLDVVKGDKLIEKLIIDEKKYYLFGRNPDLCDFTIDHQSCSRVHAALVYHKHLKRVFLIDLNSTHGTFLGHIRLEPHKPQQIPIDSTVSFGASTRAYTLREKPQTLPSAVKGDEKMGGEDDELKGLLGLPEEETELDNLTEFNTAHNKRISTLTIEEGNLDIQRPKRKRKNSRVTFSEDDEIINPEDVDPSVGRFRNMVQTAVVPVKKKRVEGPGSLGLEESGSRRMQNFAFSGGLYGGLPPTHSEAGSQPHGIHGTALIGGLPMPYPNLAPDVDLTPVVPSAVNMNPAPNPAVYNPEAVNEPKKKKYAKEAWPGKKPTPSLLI
# UniProt Q96SB3: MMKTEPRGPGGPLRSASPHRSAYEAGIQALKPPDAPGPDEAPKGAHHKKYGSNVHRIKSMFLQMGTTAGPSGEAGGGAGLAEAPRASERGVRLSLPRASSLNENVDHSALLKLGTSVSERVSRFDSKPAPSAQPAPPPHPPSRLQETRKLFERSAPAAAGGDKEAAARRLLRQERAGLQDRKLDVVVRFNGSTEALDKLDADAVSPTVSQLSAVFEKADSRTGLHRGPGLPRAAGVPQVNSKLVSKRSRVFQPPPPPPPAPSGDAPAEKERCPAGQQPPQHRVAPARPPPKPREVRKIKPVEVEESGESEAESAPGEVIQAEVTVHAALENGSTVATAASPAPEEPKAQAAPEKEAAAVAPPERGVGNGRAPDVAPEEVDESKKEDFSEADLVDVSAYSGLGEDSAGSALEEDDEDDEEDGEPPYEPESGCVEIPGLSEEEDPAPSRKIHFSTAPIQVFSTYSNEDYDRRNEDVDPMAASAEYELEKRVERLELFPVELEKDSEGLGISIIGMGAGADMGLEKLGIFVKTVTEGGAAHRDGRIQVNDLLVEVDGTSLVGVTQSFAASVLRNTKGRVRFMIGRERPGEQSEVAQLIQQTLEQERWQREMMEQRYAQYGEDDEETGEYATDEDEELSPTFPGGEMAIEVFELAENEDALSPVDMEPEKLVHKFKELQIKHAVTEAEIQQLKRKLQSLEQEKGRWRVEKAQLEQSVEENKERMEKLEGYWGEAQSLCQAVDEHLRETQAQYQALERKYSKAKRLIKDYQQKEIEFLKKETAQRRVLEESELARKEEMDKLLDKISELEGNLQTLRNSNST
# UniProt Q6UXN9: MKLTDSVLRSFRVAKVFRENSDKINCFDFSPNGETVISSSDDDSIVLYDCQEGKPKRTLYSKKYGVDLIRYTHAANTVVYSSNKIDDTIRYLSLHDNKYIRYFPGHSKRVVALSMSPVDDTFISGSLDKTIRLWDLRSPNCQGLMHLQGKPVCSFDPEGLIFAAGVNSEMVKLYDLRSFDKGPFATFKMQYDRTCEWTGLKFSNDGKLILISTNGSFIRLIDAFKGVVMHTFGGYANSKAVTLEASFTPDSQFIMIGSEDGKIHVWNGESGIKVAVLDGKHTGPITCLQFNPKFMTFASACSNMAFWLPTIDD
# UniProt Q6NZY4: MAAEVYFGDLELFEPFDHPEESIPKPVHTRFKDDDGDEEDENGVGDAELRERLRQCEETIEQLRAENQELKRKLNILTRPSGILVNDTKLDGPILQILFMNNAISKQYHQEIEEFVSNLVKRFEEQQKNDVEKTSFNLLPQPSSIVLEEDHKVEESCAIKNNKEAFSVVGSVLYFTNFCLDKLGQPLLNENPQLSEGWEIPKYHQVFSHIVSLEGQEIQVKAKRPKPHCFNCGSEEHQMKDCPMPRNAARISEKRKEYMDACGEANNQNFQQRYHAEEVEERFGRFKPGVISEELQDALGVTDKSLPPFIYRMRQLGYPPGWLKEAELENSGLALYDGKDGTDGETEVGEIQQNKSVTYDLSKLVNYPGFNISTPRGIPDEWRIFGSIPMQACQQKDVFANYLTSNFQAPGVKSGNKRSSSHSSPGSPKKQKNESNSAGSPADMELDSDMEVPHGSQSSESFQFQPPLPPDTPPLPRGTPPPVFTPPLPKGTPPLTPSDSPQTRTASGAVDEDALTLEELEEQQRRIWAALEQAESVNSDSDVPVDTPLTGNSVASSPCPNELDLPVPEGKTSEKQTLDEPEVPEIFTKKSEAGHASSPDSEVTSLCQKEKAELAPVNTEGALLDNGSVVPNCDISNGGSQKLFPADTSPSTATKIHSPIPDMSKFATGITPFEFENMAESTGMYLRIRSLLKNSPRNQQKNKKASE
# Legend:
# Assay in all cases: affinity purification with mass spectrometry
# [1] = target: PP1^H66K-PNUTS fusion: Avitag PP1α (1-304, H66K) linked by SGSGS to PNUTS (408-940) (UniProt P62136)
# [2] = target: T1, Full length Avitag-PNUTS 1-940 (UniProt Q96QC0)
# T1 sequence: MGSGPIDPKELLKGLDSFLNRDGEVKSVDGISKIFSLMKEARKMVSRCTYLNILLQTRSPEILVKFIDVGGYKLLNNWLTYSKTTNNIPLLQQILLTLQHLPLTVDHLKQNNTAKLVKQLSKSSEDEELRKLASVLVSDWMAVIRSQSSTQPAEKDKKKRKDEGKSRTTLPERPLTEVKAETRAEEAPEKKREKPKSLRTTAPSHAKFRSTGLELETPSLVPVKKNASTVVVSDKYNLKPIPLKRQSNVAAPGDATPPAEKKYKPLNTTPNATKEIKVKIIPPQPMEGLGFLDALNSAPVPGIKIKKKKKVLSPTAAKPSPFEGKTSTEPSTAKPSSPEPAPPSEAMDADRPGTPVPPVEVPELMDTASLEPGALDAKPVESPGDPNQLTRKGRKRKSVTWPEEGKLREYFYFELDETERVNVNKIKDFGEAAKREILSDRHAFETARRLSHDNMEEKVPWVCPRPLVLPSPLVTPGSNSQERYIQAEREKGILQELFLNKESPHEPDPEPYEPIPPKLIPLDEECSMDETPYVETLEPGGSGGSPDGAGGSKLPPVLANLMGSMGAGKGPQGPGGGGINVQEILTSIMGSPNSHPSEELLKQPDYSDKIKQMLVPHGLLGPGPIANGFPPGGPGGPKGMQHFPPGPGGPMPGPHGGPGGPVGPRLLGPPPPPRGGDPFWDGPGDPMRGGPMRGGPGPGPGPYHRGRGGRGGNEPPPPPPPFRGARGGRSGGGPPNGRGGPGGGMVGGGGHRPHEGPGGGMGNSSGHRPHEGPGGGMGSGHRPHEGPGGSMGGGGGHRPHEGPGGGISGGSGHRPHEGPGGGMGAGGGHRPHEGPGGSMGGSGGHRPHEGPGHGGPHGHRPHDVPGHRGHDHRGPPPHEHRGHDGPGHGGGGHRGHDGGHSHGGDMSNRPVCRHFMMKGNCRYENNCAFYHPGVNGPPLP
# [3] = target: PP1^WT-PNUTS fusion: Avitag PP1α (1-304) linked by SGSGS to PNUTS (408-940) (UniProt P62136)
binding [1],binding [2],binding [3],Substance
binds,–,–,MK167 (from UniProt P46013 1-3256)
–,binds,–,PP1 catalytic subunit (PPP1CA) (from UniProt P62136 1-330) (enzyme)
binds,binds,binds,PPP1R8 (from UniProt Q12972 1-351)
binds,–,–,PPP1R9A (from UniProt Q9ULJ8 1-1098)
–,binds,–,PPP1R9B (spinophilin) (from UniProt Q96SB3 1-817)
binds,–,binds,RIF1 (from UniProt Q5UIP0 1-2472)
binds,binds,binds,WDR82 (from UniProt Q6UXN9 1-313)
binds,–,–,ZCCHC8 (from UniProt Q6NZY4 1-707)

# No constants are given. Whether binding was seen depends on the method and setting. Binding seen in cells or lysates may run through a third protein. A yes stands for co-enrichment or nearness to the bait. Other partners may have been found. For some of these results: Sequences can lack the tags named with a protein.
